## Screening data, single-dose tests

Sequences of proteins named here, by UniProt entry; tags and fusion partners are left off. Residues count along the entry.
UniProt P9WPC5, whole entry: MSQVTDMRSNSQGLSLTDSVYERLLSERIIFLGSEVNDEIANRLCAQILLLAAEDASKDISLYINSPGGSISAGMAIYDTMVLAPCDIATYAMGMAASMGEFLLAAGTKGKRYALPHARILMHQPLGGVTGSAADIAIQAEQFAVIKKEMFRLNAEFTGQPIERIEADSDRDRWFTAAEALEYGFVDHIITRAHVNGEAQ
UniProt P9WPC3, whole entry partner: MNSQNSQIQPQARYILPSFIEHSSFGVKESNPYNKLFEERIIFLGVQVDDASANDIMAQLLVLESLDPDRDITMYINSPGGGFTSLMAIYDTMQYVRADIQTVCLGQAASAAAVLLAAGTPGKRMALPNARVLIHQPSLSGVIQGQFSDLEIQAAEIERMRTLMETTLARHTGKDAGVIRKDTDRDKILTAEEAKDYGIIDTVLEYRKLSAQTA
UniProt Q8IDJ8, 1-583: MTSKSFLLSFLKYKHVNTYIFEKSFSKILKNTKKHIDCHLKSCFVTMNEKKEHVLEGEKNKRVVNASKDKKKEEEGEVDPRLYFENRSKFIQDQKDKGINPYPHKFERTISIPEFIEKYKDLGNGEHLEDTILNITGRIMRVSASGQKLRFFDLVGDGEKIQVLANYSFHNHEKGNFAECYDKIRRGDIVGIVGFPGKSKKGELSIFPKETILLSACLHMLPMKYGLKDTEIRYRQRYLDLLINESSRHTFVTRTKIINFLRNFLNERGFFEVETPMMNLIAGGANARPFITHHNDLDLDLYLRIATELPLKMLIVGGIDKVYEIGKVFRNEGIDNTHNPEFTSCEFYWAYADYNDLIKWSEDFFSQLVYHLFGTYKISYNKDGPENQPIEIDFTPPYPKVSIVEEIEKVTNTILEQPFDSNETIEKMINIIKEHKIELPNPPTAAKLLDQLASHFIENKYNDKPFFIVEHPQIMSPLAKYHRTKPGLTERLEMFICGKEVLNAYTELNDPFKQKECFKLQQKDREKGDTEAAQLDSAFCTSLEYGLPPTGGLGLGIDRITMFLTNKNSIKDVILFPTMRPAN
UniProt P9WFT3, whole entry: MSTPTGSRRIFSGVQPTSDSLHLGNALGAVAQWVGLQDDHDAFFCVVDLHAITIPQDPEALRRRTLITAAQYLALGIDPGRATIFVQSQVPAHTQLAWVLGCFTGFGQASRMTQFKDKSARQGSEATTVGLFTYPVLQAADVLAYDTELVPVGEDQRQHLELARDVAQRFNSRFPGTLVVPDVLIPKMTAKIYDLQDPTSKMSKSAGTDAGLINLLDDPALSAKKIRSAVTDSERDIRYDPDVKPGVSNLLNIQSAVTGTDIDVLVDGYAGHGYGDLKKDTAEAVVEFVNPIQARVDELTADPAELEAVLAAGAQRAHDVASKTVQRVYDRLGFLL
UniProt A4I591, 1-473: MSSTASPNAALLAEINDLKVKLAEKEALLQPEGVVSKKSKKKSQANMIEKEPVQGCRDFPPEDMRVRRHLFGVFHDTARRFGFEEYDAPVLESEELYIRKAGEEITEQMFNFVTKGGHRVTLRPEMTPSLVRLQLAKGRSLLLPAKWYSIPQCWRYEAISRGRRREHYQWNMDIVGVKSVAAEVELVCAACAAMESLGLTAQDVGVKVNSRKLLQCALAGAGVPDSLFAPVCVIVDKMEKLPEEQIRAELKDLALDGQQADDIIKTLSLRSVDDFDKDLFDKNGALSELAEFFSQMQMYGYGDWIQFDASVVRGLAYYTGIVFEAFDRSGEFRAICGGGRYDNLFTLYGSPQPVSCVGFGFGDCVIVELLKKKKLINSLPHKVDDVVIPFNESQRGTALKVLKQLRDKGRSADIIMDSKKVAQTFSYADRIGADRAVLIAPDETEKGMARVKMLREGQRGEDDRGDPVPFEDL
UniProt Q4DA54, 1-478: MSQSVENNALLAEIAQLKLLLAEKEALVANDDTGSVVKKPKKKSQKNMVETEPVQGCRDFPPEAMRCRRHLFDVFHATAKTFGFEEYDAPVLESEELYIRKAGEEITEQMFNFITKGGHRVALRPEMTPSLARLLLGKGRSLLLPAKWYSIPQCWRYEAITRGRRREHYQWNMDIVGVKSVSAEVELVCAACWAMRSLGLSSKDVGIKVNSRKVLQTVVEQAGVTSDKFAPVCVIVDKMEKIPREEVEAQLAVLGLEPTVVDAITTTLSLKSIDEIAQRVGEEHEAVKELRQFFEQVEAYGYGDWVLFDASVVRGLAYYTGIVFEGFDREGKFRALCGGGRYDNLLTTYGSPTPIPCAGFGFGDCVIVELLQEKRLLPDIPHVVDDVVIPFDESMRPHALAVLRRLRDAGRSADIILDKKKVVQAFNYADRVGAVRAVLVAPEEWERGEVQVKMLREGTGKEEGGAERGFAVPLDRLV

Data taken from ChEMBL document CHEMBL3988442, “University of Dundee, Small-Polar-MMV Screening Library” (2021).

The filed quantity is “Percent Effect” (%). The record does not define 0% and 100%; most values in the screen are far below 50% and negative numbers occur (in some assays of this library far below -100). Compounds were drawn at random from those tested, without regard to their results. Two or more numbers in one place are separate tests of the same structure; such repeats can differ widely. A dash means the value is not listed here; it may have been measured.

ClpP1P2: 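ClpP1P2, Mycobacterium tuberculosis (UniProt P9WPC5 and UniProt P9WPC3). Protease assay of ClpP1P2, read by the AMC dye that it sets free. Concentration: 50 µM. Higher reads as stronger inhibition, judged from the few compounds that gave an IC50. Most other retested compounds had strongly negative values. Size under these conditions: about 69,000 compounds, about 10 of them at 50% or above in at least one test.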
PfKRS1: 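Lysine-tRNA ligase, Plasmodium falciparum 3D7 (UniProt Q8IDJ8). Enzyme assay of the cytosolic lysyl-tRNA synthetase in 384-well plates, read by luminescence. Tested at 30 µM. Higher reads as stronger inhibition, judged from the few compounds that gave an IC50. Of about 69,000 compounds tested this way, about 49 (0.071%) reached 50% or more in at least one test.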
MtTrpRS: 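Tryptophan-tRNA ligase, Mycobacterium tuberculosis (UniProt P9WFT3). Enzyme assay of tryptophanyl-tRNA synthetase; the read-out is not stated. Concentration: 10 µM. Higher most likely means stronger inhibition; the record gives no direction and few retests gave an IC50. Size under these conditions: about 65,000 compounds, about 64 of them at 50% or above in at least one test.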
LiHisRS: 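Enzyme assay of histidyl-tRNA synthetase; the read-out is not stated. Target: Histidine-tRNA ligase, Leishmania infantum (UniProt A4I591). Tested at 30 µM. Direction is inferred from retests: higher values go with stronger inhibition. The assay is labelled LdHisRS but filed under L. infantum. About 69,000 compounds were tested under these conditions; 0.6% (about 410) showed 50% or more at least once.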
TcHisRS: 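Histidine-tRNA ligase, Trypanosoma cruzi CL Brener (UniProt Q4DA54). Enzyme assay of histidyl-tRNA synthetase; the read-out is not stated. Compounds at 30 µM. Direction is inferred from retests: higher values go with stronger inhibition. Of about 69,000 compounds tested this way, about 31 (0.045%) reached 50% or more in at least one test.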
Leishmania in macrophages: 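Cell assay of Leishmania donovani living inside macrophages; the read-out is not stated. Concentration: 30 µM. Higher reads as stronger inhibition (inferred: compounds with an IC50 in retests scored well above the rest). Of about 69,000 compounds tested this way, about 1,000 (1.5%) reached 50% or more in at least one test.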

compound	ClpP1P2	PfKRS1	MtTrpRS	LiHisRS	TcHisRS	Leishmania in macrophages
CC(C)c1ccc(OCCC(=O)NCCC(=O)N(C)C)cc1	-3.922	5.75	-2.427	16.67	6.863	9.239
O=C(CC1CCN(c2cccnn2)CC1)NC1CCOCC1	10.3	-1.367	5.426	11.43	4.215	-20.03
CCCS(=O)(=O)NCCn1ccc(-c2cccs2)n1	-13.26	-1.466	1.972	-5.085	1.463	-148.6
c1ccc(CO[C@H]2C[C@@H]3CN(Cc4cccnc4)C[C@@H]3C2)cc1	-0.3458	0.09985	4.812	22.11	11.19	-
C=C(C)COc1ccc(C(=O)NCC2CC(CC)=NO2)cc1 (stereo not drawn)	-5.354	1.246	0.5198	2.632	2.793	-4.8
N[C@@H](Cc1ccccc1)c1nnc(S(=O)(=O)Cc2ccccc2)o1	-10.08	-0.806	-0.1898	-6.522	2	-6.215
N#Cc1cccc(S(=O)(=O)NC(=O)c2csc(-c3ccco3)n2)c1	8.429	-2.28	11.02	20.72	-3.333	-16.85
CC(C)N(CCO)C(=O)c1cc(COc2ccc3c(c2)CCCC3)on1	3.586	4.383	2.592	14.67	0.5291	15.58
COCCN(CC1CCCN(C2Cc3ccccc3C2)C1)C(=O)COC (stereo not drawn)	-2.701	11.4	2.478	8.824	0.5291	17.26
CC(NC(=O)Cn1ccc(=O)n(C)c1=O)c1ccccc1F (stereo not drawn)	-13.96	0.8709	0.3975	18.8	4.843	19.46
Cc1csc(CN(C)C(=O)Nc2cc(F)cc(N3CCCC3)c2)n1	0.01004	-2.375	-0.3276	18.31	7.182	-7.473
Cc1ccc(-c2cc(C(=O)NCCN3CCOCC3)n[nH]2)s1	9.17	9.921	-0.4461	19.18	8.108	26.77
CCC(C)C(=O)NCc1ccn(-c2ccc(F)cc2)n1 (stereo not drawn)	-8.077	-0.541	-19.77	16.44	3.158	10.33
CCC1c2ccsc2CCN1C(=O)NCc1ccc(C)nc1 (stereo not drawn)	-5.89	-1.118	-0.6684	15.74	3.812	22.1
CN1CCN(c2cc(CNC(=O)c3ccc(Cl)o3)ccn2)CC1	-25	1.094	1.352	14.68	5.294	27.06
Cn1nccc1-c1ncc(-c2cc(C(=O)O)n(CC3CC3)c2)cn1	11.05	0.2824	-	47.17	4.444	1.266
CC(NS(C)(=O)=O)C(=O)Nc1ccc2oc(C3CC3)nc2c1 (stereo not drawn)	0.6532	-1.994	-0.5045	15.49	5.732	21.48
Cc1csc(N2CCN(Cc3nccn3C)CC2C)n1 (stereo not drawn)	-9.37	-3.495	-0.4079	10.84	-3.659	17.15
O=C(COc1ccccc1F)NCCC(O)c1ccco1 (stereo not drawn)	1.947	4.787	-4.179	13.91	6.186	12.24 and 0.919
O=C(O)C(F)(F)F.O=C(O)C(F)(F)F.O=C(O)C(F)(F)F.[H][C@@]12CCN(Cc3cnn(C)c3)[C@]1([H])CC[C@@H](C(=O)Nc1cccnc1C)O2	-	-	-	-	-	-3.625
COc1cccc(N2CCC(N3CCOC(C(F)(F)F)C3)CC2)c1 (stereo not drawn)	1.27	5.288	0.6988	14.29	4.124	13.73
Cc1noc(C)c1CN1C[C@@H](OCC(=O)N(C)C)[C@H]2OCCC[C@H]21	1.9	-4.768	-1.262	13.16	-2.299	-
Cc1nn(CC(C)C)c(N(C)C)c1CNCc1ccccc1CO	-11.34	-0.04766	-7.729	10.71	2.907	21.03
O=C(O)C(F)(F)F.[H][C@@]12CCCO[C@]1([H])[C@H](NC(=O)CC1CC1)CN(Cc1ccc(F)cc1)C2	-	-	-	-	-	16.29
[H][C@@]12CCN(Cc3cc(C)on3)C[C@]1([H])OCCN(c1cccnc1)C2=O	-	-	-	-	-	19.62
O=C([C@@H]1CC[C@@H]2[C@@H](CCN2CCOCc2ccccc2)O1)N1CCCC1	14.82	1.292	-2.698	16	8.247	-
O=C(O)C(F)(F)F.[H][C@]12CCN(C(=O)c3ccnnc3)CC[C@]1([H])N(CCOC)CCO2	-	-	-	-	-	15.67
Cc1ccc(CNCc2c(C)nn(C)c2N(C)C)cn1	-8.206	3.059	-3.078	6.557	3.488	13.94
O=C(O)C1(Oc2ccccc2)CCN(c2ccncc2)CC1	-3.63	3.738	2.246	12	3.518	-0.03282
CC(C)C[C@H](NC(=O)Cn1ccc2c(Cl)cccc21)C(=O)O	9.4	-0.8486	3.992	15.79	7.602	22.06
CCN(C)c1ncnc2c1CCN(Cc1nccs1)CC2	19.46	3.194	10.28	7.895	1.149	-
Cc1ccc(CN(CCCN2CCOCC2)Cc2cnc(C)n2C)o1.O=C(O)CC(O)(CC(=O)O)C(=O)O	-	-	-	-	-	8.445
Cc1noc(C)c1CN1CCc2ncc(CN3CCCC3)n2CC1	-8.314	4.697	4.216	15.97	0.9804	-
Cn1ccnc1CN(CCCO)C1CCCc2ccccc21 (stereo not drawn)	1.027	4.98	-7.733	17.14	0	23.71
Cc1sc2c(C3CCCN(C(C)C)C3)nc(C)n2c1C (stereo not drawn)	-1.095	-0.7296	-0.7536	-1.053	2.239	19.5 and 7.738
O=C(c1ccccc1F)N1CCC2(CC1)CC(Oc1ccccn1)CO2 (stereo not drawn)	1.698	4.244	-	13.51	5.525	-
COc1ccc2cc(CN(C)CCN3CCCCC3=O)c(=O)[nH]c2c1	-214.9	4.076	-2.75	17.5	6.763	-8.526
COCC1c2c(cnn2CC2CC2)CCN1Cc1cccs1 (stereo not drawn)	-11.83	1.661	2.623	3.774	2.703	-
O=C(NCC(O)(c1cccs1)C1CC1)NC1CCCCC1 (stereo not drawn)	9.693	12.28	5.699	-1.739	4.124	6.091 and -12.56
CC(C)c1ccc(N2CCc3onc(-c4ccc(F)c(F)c4)c3C2)nn1	-24.98	6.732	-2.894	14.17	-3.865	-4.391
CCn1ccc(-c2cc(C(=O)O)n3ncc(Br)c3n2)n1	5.021	1.623	2.365	3.448	2.062	-15.32
Cc1cnn(CC2CN(CCc3ccccn3)CCO2)c1 (stereo not drawn)	6.743	3.559	-2.811	13.04	-1.127	18.03
CC(C)C[C@@H]1N[C@H](C(=O)NC2CCOCC2)Cc2c[nH]c3cccc1c23	-22.14	4.035	-0.07588	14.86	4.348	10.64
Cc1cnn(CC2CCCCN2C(=O)c2cnc3n[nH]c(C)c3c2)c1 (stereo not drawn)	-12.78	-2.439	-1.533	10.26	1.994	16.59
COc1c(CNCCc2c[nH]c3cc(F)ccc23)c(C(C)C)nn1C	-6.886	0.3285	2.581	20.21	15.15	18.68

3 of the entries, repeated:

With Cc1noc(C)c1CN1C[C@@H](OCC(=O)N(C)C)[C@H]2OCCC[C@H]21 the screen gave ClpP1P2: 1.9%; PfKRS1: -4.768%; MtTrpRS: -1.262%; LiHisRS: 13.16%; TcHisRS: -2.299%.
With CC(NS(C)(=O)=O)C(=O)Nc1ccc2oc(C3CC3)nc2c1 (stereo not drawn) the screen gave ClpP1P2: 0.6532%; PfKRS1: -1.994%; MtTrpRS: -0.5045%; LiHisRS: 15.49%; TcHisRS: 5.732%; Leishmania in macrophages: 21.48%.
With Cc1csc(CN(C)C(=O)Nc2cc(F)cc(N3CCCC3)c2)n1 the screen gave ClpP1P2: 0.01004%; PfKRS1: -2.375%; MtTrpRS: -0.3276%; LiHisRS: 18.31%; TcHisRS: 7.182%; Leishmania in macrophages: -7.473%.